This experiment has as its target HA/Zbtb7b (UniProt Q64321). Nature of the experiment: co-IP; Hepa1c1c7 cells co-transfected with the indicated plasmids for 48 h, with MG-132; lysates (500-800 ug) incubated overnight at 4 °C with EZview Red ANTI-FLAG M2 Affinity Gel and EZview Red Anti-HA Affinity Gel; beads washed seven to eight times with cold RIPA buffer; immunoblotting.

Protein sequences, listed by entry. Tags and fused reporters are not part of them.
UniProt Q64321: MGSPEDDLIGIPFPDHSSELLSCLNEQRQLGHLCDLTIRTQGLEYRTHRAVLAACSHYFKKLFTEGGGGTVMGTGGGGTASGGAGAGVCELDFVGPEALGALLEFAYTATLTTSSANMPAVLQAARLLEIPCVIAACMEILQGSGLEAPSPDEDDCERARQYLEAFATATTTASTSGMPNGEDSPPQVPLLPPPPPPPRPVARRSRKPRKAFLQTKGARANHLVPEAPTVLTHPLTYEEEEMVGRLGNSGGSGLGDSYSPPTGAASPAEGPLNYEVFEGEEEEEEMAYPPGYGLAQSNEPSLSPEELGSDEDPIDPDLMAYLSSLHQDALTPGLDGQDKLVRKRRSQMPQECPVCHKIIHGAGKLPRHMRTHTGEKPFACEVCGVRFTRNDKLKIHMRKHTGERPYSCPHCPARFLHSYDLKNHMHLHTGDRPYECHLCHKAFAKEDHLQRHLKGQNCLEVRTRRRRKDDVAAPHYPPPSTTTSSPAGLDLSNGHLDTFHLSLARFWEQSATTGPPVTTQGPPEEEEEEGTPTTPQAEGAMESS
UniProt E0CYQ0: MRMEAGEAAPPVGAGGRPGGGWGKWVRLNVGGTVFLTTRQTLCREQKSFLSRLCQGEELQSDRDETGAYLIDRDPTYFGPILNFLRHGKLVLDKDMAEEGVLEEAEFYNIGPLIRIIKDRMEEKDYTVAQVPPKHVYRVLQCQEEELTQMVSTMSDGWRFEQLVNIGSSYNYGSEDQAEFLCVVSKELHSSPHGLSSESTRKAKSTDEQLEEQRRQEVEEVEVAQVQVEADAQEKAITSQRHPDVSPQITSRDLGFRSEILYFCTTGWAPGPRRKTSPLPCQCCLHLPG

No constants are given. Whether binding was seen depends on the method and setting. In cells and extracts the contact can be indirect. Some results given as binding are weak or reduced against the parent protein; the word gives no strength.

Turning to Kctd17/Flag (from UniProt E0CYQ0 1-289), the binding entry is reported as “binds”.

These data come from PMC12411619.
